Sequences of proteins named here, by UniProt entry; tags and fusion partners are left off. A change or cut given only in a name is not applied to a line headed by its entry.
UniProt P18054: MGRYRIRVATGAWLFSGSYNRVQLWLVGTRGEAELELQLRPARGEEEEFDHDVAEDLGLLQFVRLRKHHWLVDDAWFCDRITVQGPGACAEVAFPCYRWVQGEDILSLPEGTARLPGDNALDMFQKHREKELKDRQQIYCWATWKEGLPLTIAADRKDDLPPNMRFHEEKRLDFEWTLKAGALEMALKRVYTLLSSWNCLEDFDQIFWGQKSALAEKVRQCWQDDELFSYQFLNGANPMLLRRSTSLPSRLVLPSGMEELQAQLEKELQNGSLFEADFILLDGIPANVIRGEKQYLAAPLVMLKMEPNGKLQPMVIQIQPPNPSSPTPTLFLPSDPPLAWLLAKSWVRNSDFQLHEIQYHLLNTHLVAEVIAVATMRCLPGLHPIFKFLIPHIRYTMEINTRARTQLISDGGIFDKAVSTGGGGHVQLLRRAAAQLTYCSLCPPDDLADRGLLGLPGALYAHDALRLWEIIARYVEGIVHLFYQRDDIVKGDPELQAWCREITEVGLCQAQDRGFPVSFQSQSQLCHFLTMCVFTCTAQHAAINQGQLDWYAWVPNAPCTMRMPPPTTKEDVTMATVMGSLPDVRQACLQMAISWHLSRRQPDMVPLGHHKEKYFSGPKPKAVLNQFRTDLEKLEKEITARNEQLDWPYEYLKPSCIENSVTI

“And” between values parts separate entries of the source, which are not always exact repeats. Identical values can stand only once. The campaign covered roughly 580,000 compounds. About 6,100 (1.1%) were called active. The shares of active, inactive and inconclusive entries below differ from those in the screen. Calls come from the whole dose curve; as a rule, active = well fitted inhibition curve with a large enough effect; inconclusive = small, poorly fitted or top-dose-only effect, or another doubt; inactive = no such curve, though single readings can be large or run the other way. Where the call is inconclusive, the potency comes from a doubtful curve fit.
The compounds below were run against Polyunsaturated fatty acid lipoxygenase ALOX12 (Homo sapiens) (UniProt P18054) (assay: Primary qHTS assay for inhibitors of human arachidonate 12S-lipoxygenase (ALOX12): Round 2). Conditions: purified 12hLO, xylenol orange hydroperoxide absorbance; series mostly up to 108 µM.
Method in brief: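 Hydroperoxide product was detected by ferrous iron/xylenol orange as the 573 to 405 nm absorbance ratio. Arachidonic acid at 40 uM (final) was turned over for 30 min at room temperature by 150 nM human 12hLO, pH 7.0 Hepes buffer, after 15 min compound preincubation.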
For `COCCNC(=O)Cn1cc(C(=S)N2CCOCC2)c2ccccc21`, the Potency was “inactive”.
In the case of `COc1ccc2[nH]cc(CCNc3cc(-c4ccccc4C(F)(F)F)ncn3)c2c1`, the Potency is reported as inconclusive: 44.7 µM [inhibitor, partial curve, poor fit].
With `Cc1ccc(-c2cc(-c3cccc(F)c3)n[nH]2)c(O)c1` the Potency was inconclusive: 44.7 µM [inhibitor, single point].
In the case of `CC(C)(C)C(=O)Cn1cnc(C#N)n1`, the Potency is reported as “inactive”.
`COc1ccc(/C=C2\SC(=O)N(CC(=O)NC3C=CS(=O)(=O)C3)C2=O)cc1` (centres undefined) was tested, and the Potency was “inactive”.
In the case of `Cc1cc(Nc2cccc(Cl)c2)nc(NCc2ccccc2)n1`, the Potency is reported as inconclusive: 50.1 µM [inhibitor, partial curve, poor fit] and inconclusive: 39.8 µM [inhibitor, partial curve, poor fit].
In the case of `CCOC(=O)c1c(NC(=S)NC(=O)c2cnn(CC)c2)sc2c1CCC(C)C2` (centres undefined), the Potency is reported as inconclusive: 17.8 µM [inhibitor, partial curve, poor fit].
For `O=C(O)Cn1c(=O)c2c(c3ccccc31)CCC2`, the Potency was “inactive”.
With `Clc1ccccc1-c1nc(Nc2ccncc2)c2ccccc2n1` the Potency was inconclusive: 7.08 µM [inhibitor, full curve, poor fit].
With `O=C(c1ccc(F)cc1)N1CCCC(c2nn(-c3cccc(Cl)c3)c(=O)[nH]2)C1` (centres undefined) the Potency was “inactive”.
In the case of `COc1ccc(C2CC(=O)N3CN(c4ccccc4F)CSC3=C2C#N)cc1OC` (centres undefined), the Potency is reported as inconclusive: 2.82 µM [inhibitor, full curve, poor fit].
For `CCCC(c1nnnn1Cc1ccco1)N1CCC(C(N)=O)CC1` (centres undefined), the Potency was inconclusive: 4.47 µM [inhibitor, full curve, poor fit].
For `CCOc1cccc2cc(C(=O)OCC(=O)Nc3c(C)cccc3CC)c(=O)oc12`, the Potency was inconclusive: 100 µM [inhibitor, partial curve, poor fit].
In the case of `CC(Nc1ccc(Br)cc1)C(=O)Nc1cccc(S(=O)(=O)N2CCOCC2)c1` (centres undefined), the Potency is reported as inconclusive: 44.7 µM [inhibitor, partial curve].
For `CCOC(=O)CC(=O)CSCC(=O)Nc1ccc(C)cc1`, the Potency was inconclusive: 35.5 µM [inhibitor, partial curve, poor fit].
With `COc1ccc(C(C(=O)NC2CCCCC2)N(C(=O)c2ccco2)c2ccccc2OC)cc1` (centres undefined) the Potency was “inactive”.
With `COc1cccc2c(O)c(-c3ccccc3)c(=O)[nH]c12` the Potency was inconclusive: 100 µM [inhibitor, partial curve, poor fit].
In the case of `O=C(Nc1ccc(Cl)cc1Cl)C1C2CC/C=C\CC/C=C/CCC21` (centres undefined), the Potency is reported as inconclusive: 25.1 µM [inhibitor, partial curve].
With `Cc1nc2ncnn2c(C)c1CCC(=O)N1C[C@@H](N)C[C@H]1C(=O)NC(C)C` the Potency was inconclusive: 14.1 µM [inhibitor, partial curve, poor fit].
For `CCCCNC(=O)C[C@@H]1C[C@@]2(C(=O)OC)CCCCC=C2N(Cc2ccc(Cl)cc2Cl)C1=O`, the Potency was inconclusive: 158 µM [inhibitor, partial curve, poor fit].
For `COC(=O)C1=C(C)N(C)C(=O)NC1c1c(OC)ccc2ccccc12` (centres undefined), the Potency was “inactive”.
`FC(F)(F)Oc1ccc2c(c1)NC(c1ccncc1)=NC(c1cccs1)=N2` was tested, and the Potency was inconclusive: 112 µM [inhibitor, partial curve, poor fit].
With `C=Cc1ccc(Cn2c(C)c(CNCCc3ccccc3C)c(C(=O)O)c2C)cc1` the Potency was inconclusive: 79.4 µM [inhibitor, partial curve, poor fit].
In the case of `CCOC(=O)/C(C#N)=C\c1c(OCC)n(CC)c2ccccc12`, the Potency is reported as “inactive”.
For `O=C1CC(C(=O)Nc2ccccc2C(F)(F)F)n2nc(SCc3ccccc3)nc2N1` (centres undefined), the Potency was inconclusive: 158 µM [inhibitor, partial curve, poor fit].
With `CC(=O)Nc1ccc(NC(=O)CCc2ncc(-c3ccc(F)cc3F)o2)cc1` the Potency was “inactive”.
For `Cc1ccc(NC(=O)Cn2c(-c3ccc(Cl)cc3)nc(C)c(CCO)c2=O)cc1`, the Potency was “inactive”.
`COc1ccc(Oc2ncc3nc(C)c(=O)n(C[C@H]4CCCO4)c3n2)cc1` was tested, and the Potency was inconclusive: 39.8 µM [inhibitor, partial curve, poor fit].
`Cc1[nH]c2ccccc2c1C(=O)C(=O)N(C)Cc1ccccc1` was tested, and the Potency was “inactive”.
With `CC(C)[C@H](N)c1nnc(SCc2ccc(Cl)cc2)o1` the Potency was “inactive”.
`O=C(Nc1cc(S(=O)(=O)N2CCCC2)ccc1Cl)c1cc(F)c(F)c(F)c1F` was tested, and the Potency was inconclusive: 56.2 µM [inhibitor, partial curve, poor fit].
`COc1ccc(NC(=O)C/C(C)=N/NC(=O)C(=O)NC(C)C)c(OC)c1` was tested, and the Potency was “inactive”.
In the case of `NC(=O)C(=O)Nc1ccccc1C(=O)NCc1ccncc1`, the Potency is reported as inconclusive: 31.6 µM [inhibitor, single point].
`Cc1ccc(NC(=O)CCSc2nc(-c3ccco3)cc(C(F)(F)F)n2)cc1F` was tested, and the Potency was “inactive”.
`CC(Cc1cccs1)N(Cc1ccccc1)C(=O)c1cccc(S(=O)(=O)N(C)C)c1` (centres undefined) was tested, and the Potency was “inactive”.
For `O=C1/C(=C\Nc2ccc(Cl)cc2)CCN1c1ncccn1`, the Potency was inconclusive: 39.8 µM [inhibitor, partial curve].
With `CN1CCSc2ccc(C(=O)NCc3cccc(F)c3)cc21` the Potency was inconclusive: 15.8 µM [inhibitor, partial curve, poor fit].
With `CC(C)N[C@H]1C[C@@H](Cc2cc(COc3ccccc3)on2)C1(C)C` the Potency was “inactive”.
In the case of `Cc1nn(-c2ccccc2)c(C)c1NC(=O)COc1ccc(Br)cc1Cl`, the Potency is reported as “inactive”.
With `CC(=O)N1CCN([C@H]2[C@@H]3OC[C@@H](O3)[C@@H](NC(=O)Nc3ccc(F)cc3)[C@@H]2O)CC1` the Potency was inconclusive: 126 µM [inhibitor, partial curve, poor fit].
With `Cc1ccc(Cl)cc1N1CCN(Cc2nc3c(c(=O)n(C)c(=O)n3C)n2CCCO)CC1` the Potency was “inactive”.
With `COc1cccc(CCC(=O)N2CCCC(Nc3ccc(F)cc3)C2)c1` (centres undefined) the Potency was inconclusive: 4.47 µM [inhibitor, full curve].
In the case of `C=CCc1ccc(OCCOCCNCCCC)c(OC)c1`, the Potency is reported as inconclusive: 1.26 µM [inhibitor, full curve, poor fit].
For `NC(=O)C[n+]1cccc(C(=O)Nc2ccccc2)c1`, the Potency was inconclusive: 3.98 µM [inhibitor, full curve].
`Clc1cccc(CN2CCCCCC2)c1` was tested, and the Potency was inconclusive: 1.78 µM [inhibitor, full curve].
`O=C(COC(=O)c1ccccn1)NCCc1ccc(Cl)cc1` was tested, and the Potency was inconclusive: 39.8 µM [inhibitor, partial curve, poor fit].
In the case of `Nc1nn(Cc2ccccc2F)cc1Br`, the Potency is reported as inconclusive: 28.2 µM [inhibitor, partial curve, poor fit].
In the case of `COc1ccc(C)cc1Nc1n[n+](-c2ccccc2)c(-c2c(Cl)cccc2Cl)s1`, the Potency is reported as inconclusive: 70.8 µM [inhibitor, partial curve, poor fit].
`O=C(Nc1ccc2c(c1)OCO2)c1cccc2c1C(=O)N(Cc1cccnc1)C2` was tested, and the Potency was “inactive”.
In the case of `O=C1[C@@H]2Cc3c([nH]c4ccccc34)C(c3ccccc3)N2C(=O)CN1C1CC1` (some centres undefined), the Potency is reported as inconclusive: 0.501 µM [inhibitor, full curve, poor fit].
For `CC1(CCc2ccccc2)NC(=S)N(c2ccccc2)N1` (centres undefined), the Potency was active: 1 µM.
`Nc1nonc1-c1nc2ccccc2n1Cc1cccc(Cl)c1` was tested, and the Potency was “inactive”.
`COc1ccc(C(=O)N2CCC3(CC2)CC(OCC2CC2)CCO3)cc1OC` (centres undefined) was tested, and the Potency was “inactive”.
With `CCOc1ccc(NC(=O)CC2C(=O)N(c3ccc(C)cc3)C(=O)N2CCC2=CCCCC2)cc1` (centres undefined) the Potency was inconclusive: 158 µM [inhibitor, partial curve, poor fit].
In the case of `CN(C)c1ccc(/C=C(\C#N)C(=O)Nc2nc3c(s2)CCN(Cc2ccccc2)C3)cc1`, the Potency is reported as “inactive”.
With `COCc1noc([C@@H]2CC(F)(F)CN2C(=O)Cc2ccccc2F)n1` the Potency was “inactive”.
In the case of `CC1CCN(c2ccc(C(=O)O)cc2NS(=O)(=O)c2ccc(Br)cc2)CC1`, the Potency is reported as inconclusive: 35.5 µM [inhibitor, partial curve, poor fit].
With `Cc1ccccc1-c1cc(C(=O)NCc2cccc(C(F)(F)F)c2)nn1CC1CC(c2cccc([N+](=O)[O-])c2)=NO1` (centres undefined) the Potency was “inactive”.
In the case of `CC(C)c1ccc(NC(=O)c2ccc(F)c(S(=O)(=O)N3CCc4ccccc4C3)c2)cc1`, the Potency is reported as inconclusive: 112 µM [inhibitor, partial curve, poor fit].
`CS(=O)(=O)N1N=C(c2ccco2)CC1c1ccccc1` (centres undefined) was tested, and the Potency was “inactive”.
With `CC(=O)c1ccc2c(c1)C1C=CCC1C(c1cc3c(cc1Br)OCO3)N2` (centres undefined) the Potency was inconclusive: 28.2 µM [inhibitor, partial curve, poor fit].
For `Cc1nc2ccccc2n2c(O)c(CC(=O)O)cc12`, the Potency was inconclusive: 17.8 µM [inhibitor, full curve].
`O=C1CCC(NC(=O)c2ccccc2)C(=O)N1` (centres undefined) was tested, and the Potency was inconclusive: 126 µM [inhibitor, single point].
With `O=C(Nc1ccc(F)cc1)N1CCCN(c2nccc(C(F)(F)F)n2)CC1` the Potency was “inactive”.
`CO[C@H]1[C@H](NC(=O)c2ccc(C)nc2)c2ccccc2C12CCNCC2` was tested, and the Potency was inconclusive: 3.98 µM [inhibitor, full curve].
With `Cc1ccc(NC(=O)c2cc([N+](=O)[O-])ccc2NCc2cccnc2)cc1Cl` the Potency was “inactive”.
With `COc1ccc(/C=C2\Oc3cc(OC(=O)C(C)(C)C)ccc3C2=O)cc1OC` the Potency was inconclusive: 44.7 µM [inhibitor, partial curve, poor fit].
`O=C1C=C(O)c2cccc(O)c2C1=O` was tested, and the Potency was active: 35.5 µM.
In the case of `CC(Sc1n[nH]c(-c2cccs2)n1)C(=O)Nc1cc(Cl)cc(Cl)c1` (centres undefined), the Potency is reported as inconclusive: 20 µM [inhibitor, partial curve].
Potency is the fitted concentration of half-maximal effect.
